Test results: patent US20260207798A1, “CYCLIC PEPTIDES AS PET IMAGING AGENTS OF GRANZYME B” (priority 2022, published 2026)
Not every detail of the peptide structures is certain; ends, links or a residue may be inferred.

The chains behind the UniProt entries cited, without tags or fusion partners. Residues count along the entry.
UniProt P10144, 21-247: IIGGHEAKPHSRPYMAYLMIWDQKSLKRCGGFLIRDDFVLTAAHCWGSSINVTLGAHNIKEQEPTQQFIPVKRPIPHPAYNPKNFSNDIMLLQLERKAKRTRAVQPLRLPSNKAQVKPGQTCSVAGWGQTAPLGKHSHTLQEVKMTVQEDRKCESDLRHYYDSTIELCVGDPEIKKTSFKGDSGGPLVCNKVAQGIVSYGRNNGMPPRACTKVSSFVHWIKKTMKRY

Target: Human Granzyme B (Homo sapiens, UniProt P10144)
Format: in vivo
Set-up: Ten million human peripheral blood mononuclear cell (PBMC) were engrafted in immunocompromised NOG (NOD/Shi-scid/IL-2Rγ) mice; endogenous in cells; host or cells: human PBMC (donor-derived) engrafted in NOG mice
Conditions: 68Ga-labeled peptide, mice, different hPBMC donor than 11a
Protocol: Diseased model: Graft versus host disease (GvHD) model was selected to evaluate radiolabeled granzyme-B peptides due to presence of human granzyme-B after onset of disease. Ten million human peripheral blood mononuclear cell (PBMC) were engrafted in immunocompromised NOG (NOD/Shi-scid/IL-2Rγ) mice. Body weight was monitored routinely, once the mice started to lose weight (indication of onset of disease), PET/CT scans were performed. To determine target specificity, NOG mice without human PBMC were used as control. […] Mice were intravenously injected with approximately 150 uCi (35 Ci/mmol) of ^18F-labeled peptides and 45-minute whole body static PET/CT scans were performed 1 h after injection. Attenuation correction was performed using low-dose CT scan.

## C[C@@H](O)[C@@H]1NC(=O)[C@H](CC(=O)O)NC(=O)[C@@H]2C[C@@H](F)CN2C(=O)[C@H](CO)NC(=O)[C@H](CCC(N)=O)NC(=O)[C@H](CC(=O)O)NC(=O)[C@H](CCC(=O)O)NC(=O)[C@H](Cc2ccccc2)NC(=O)[C@H](CC(N)=O)NC(=O)[C@H](Cc2ccccc2)NC(=O)CSC[C@@H](C(=O)NCC(=O)NCC(=O)N[C@@H](CCCCNC(=S)Nc2ccc(CC3CN(CC(=O)O)CCN(CC(=O)O)CCN3CC(=O)O)cc2)C(N)=O)NC(=O)[C@@H]2CCCN2C(=O)[C@H](CCC(N)=O)NC(=O)[C@H](Cc2c[nH]c3ccccc23)NC1=O (stereo partly shown) [Compound 19a, *F.N.F.E.D.Q.S.Prot4F.D.T.W.Q.P.*C.G.G.K(^68Ga-NOTA-1).NH2, metal not drawn]
  uptake (SUVmean) in lung and liver, GvHD model versus NOG control: significantly higher uptake in lung and liver in GvHD model than NOG control
